Results published in patent US4587045A, “Intermediates for preparing octapeptide vasopressin antagonists” (SmithKline Beckman Corporation, priority 1985, dated 1986).
Not every detail of the peptide structures is certain; ends, links or a residue may be inferred. *1 amine or outer side, *2 acyl side, *3 side chain or, on linkers, in order; H or OH if unused. Where a SMILES comes first, the peptide text is derived from it. Bridges are numbered along the chain shown (N, C = ends). [ ]: non-standard residue; d: D form. X1 = O=C(CC1(S[*:2])CCCCC1)[*:1]; Abu = CC[C@H](N)C(=O)O

Chains of the proteins cited; added tags and fusions are not shown.
UniProt Q00788, whole entry: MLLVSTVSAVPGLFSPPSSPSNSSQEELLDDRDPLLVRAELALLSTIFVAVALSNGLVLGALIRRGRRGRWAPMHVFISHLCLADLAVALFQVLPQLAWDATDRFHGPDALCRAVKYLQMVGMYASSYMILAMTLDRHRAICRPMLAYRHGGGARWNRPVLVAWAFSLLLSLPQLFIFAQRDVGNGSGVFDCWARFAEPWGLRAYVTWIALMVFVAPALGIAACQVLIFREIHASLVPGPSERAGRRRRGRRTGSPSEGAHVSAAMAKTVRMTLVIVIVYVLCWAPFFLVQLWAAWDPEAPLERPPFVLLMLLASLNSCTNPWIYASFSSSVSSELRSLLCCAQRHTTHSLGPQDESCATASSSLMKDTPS

Experiments:
[1] = biological target: T1, vasopressin receptors (V2 -receptors) (Rattus norvegicus, UniProt Q00788); assay: Hydropenic rat protocol (anti-ADH activity in vivo); conditions: estimated dose of peptide delivered ip which reduces Uosm from hydropenic levels to 300 mOsmoles/kg H2O
T1 construct: in vivo, in the hydropenic rat or the hydropenic monkey; from tissue; host or cells: whole animal (male hydropenic rat); renal receptors in situ
Procedure: (§1) Details of the in vitro protocols are in F. L. Stassen et al., J. of Pharm. Exp. Ther. 233, 50-54 (1982) but the calculations of cyclase activity and binding potential at the receptor site are as follows:
Food and water are removed from male rats approximately 18 hours prior to testing. Animals are housed 4 per metabolism cage. At 0 hour, the test compound is administered intraperitoneally to the test group and an equivalent volume of vehicle is administered to both control groups (fasted and non-fasted). Urine volume and osmolality are measured every hour for 4 hours. Test values are recorded as ml of urine excreted (cumulative), mEq/rat electrolyte excreted, mg/rat urea excreted, and osmolality in milli-Osmoles/kg H2 O. A […] is used to determine significance. ED300 is defined as the dose of compound (μg/kg) required to lower urine osmolality to 300 m-Osmoles/kg. ED500 is defined as the dose of compound (μg/kg) required to lower urine osmolality to 500 m-Osmoles/kg. The hydropenic monkey protocol is similar.

[2] = biological target: vasopressin stimulated adenylate cyclase activity; assay: Assay of adenylate cyclase activity, kidney medullary membrane; type: biochemical; conditions: pig kidney medullary membrane, read-out: anti-ADH activity in vitro (Pig) Ki
Procedure: as §1
Test Procedure for Assay of Adenylate Cyclase Activity:
In each experiment the amount of ^32 P/cAMP formed in the absence of medullary membrane is determined (blank). The blank value is subtracted from all experimental data. The compound is tested for its effect on basal adenylate cyclase activity and/or on vasopressin stimulated activity. Each determination is carried out in triplicate. The Ka value is derived from a Lineweaver-Burke plot. Rel. Vmax =(Vmax drug/Vmax vasopressin)×100. Ki =I/[(Ka'/Ka)-1] where I is the concentration of the antagonist, and Ka' and Ka are the concentrations of vasopressin required to give half-maximal activity of adenylate cyclase in the presence and absence of antagonist, respectively.

With `CCOc1ccc(C[C@H]2NC(=O)CC3(CCCCC3)SSC[C@@H](C(=O)N3CCC[C@H]3C(=O)N[C@@H](CCCNC(=N)N)C(N)=O)NC(=O)[C@H](CC(N)=O)NC(=O)[C@H](CC)NC(=O)[C@H](Cc3ccccc3)NC2=O)cc1` [Compound 6] ([dY](Et)F[Abu]NCPR-NH2; linker N-5 via X1) the “anti-ADH activity in vivo (Rat) ED300” value [1] was 0.013 mg/kg and the Ki [2] was 7.6 nM.
